Measured values from article PMC4491177, “Co-translational capturing of nascent ribosomal proteins by their dedicated chaperones” (Nature Communications, 2015).
These are yes or no findings as the source states them, for the method shown. For some of these results: In cells and extracts the contact can be indirect. Some entries that bind do so weakly or less than the wild type. Sequences can lack the tags named with a protein. Blank lines part the entries; values can stand above or below the binder they belong to.

Tests used:
[1] = biological target: T1, Rrb1.60C (yeast two-hybrid fusion) (S. cerevisiae) (UniProt Q04225); experiment: two-hybrid; bait fused to the Gal4 DNA-binding domain, prey to the Gal4 activation domain, reporter strain PJ69-4A; HIS3 and ADE2 reporters, plates 3 days at 30 °C
T1 sequence: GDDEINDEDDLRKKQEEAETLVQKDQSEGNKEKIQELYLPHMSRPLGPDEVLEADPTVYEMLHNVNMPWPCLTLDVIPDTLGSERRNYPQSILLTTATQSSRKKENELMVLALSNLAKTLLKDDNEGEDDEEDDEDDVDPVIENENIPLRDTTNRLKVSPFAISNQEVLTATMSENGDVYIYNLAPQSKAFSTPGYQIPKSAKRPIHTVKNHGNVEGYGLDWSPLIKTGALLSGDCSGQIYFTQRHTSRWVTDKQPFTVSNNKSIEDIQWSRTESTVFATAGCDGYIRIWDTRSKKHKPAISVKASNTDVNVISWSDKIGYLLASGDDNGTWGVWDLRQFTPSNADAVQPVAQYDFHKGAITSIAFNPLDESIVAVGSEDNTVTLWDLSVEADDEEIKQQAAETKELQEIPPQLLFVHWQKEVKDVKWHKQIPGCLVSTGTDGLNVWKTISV

[2] = biological target: T2, Rrb1 (yeast two-hybrid fusion) (S. cerevisiae) (UniProt Q04225); experiment: as above
T2 sequence: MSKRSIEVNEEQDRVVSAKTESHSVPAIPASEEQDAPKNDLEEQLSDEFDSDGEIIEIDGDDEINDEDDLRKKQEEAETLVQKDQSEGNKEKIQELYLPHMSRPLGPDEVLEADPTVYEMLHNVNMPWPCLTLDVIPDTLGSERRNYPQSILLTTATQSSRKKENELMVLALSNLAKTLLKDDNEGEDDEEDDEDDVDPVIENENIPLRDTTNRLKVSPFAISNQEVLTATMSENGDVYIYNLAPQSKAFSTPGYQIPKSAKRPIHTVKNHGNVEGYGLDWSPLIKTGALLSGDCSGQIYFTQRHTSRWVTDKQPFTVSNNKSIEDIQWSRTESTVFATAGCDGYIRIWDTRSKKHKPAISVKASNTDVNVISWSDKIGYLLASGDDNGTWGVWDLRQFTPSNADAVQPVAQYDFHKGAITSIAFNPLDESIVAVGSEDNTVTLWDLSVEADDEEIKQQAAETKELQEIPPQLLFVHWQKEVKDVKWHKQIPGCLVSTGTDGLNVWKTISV

[3] = biological target: T3, Sqt1 (yeast two-hybrid fusion) (S. cerevisiae) (UniProt P35184); experiment: two-hybrid; data not shown
T3 sequence: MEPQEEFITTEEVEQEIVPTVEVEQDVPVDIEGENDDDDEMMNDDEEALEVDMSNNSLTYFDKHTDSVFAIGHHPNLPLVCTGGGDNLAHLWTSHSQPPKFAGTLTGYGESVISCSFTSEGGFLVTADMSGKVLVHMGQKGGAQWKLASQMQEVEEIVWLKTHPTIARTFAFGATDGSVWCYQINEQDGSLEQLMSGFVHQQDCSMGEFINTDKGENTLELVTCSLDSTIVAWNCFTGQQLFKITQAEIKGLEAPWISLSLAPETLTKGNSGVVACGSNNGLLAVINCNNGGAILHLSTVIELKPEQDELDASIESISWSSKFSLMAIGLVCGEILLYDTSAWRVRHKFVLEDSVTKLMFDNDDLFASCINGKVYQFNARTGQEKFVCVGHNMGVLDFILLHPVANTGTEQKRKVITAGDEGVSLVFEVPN

[4] = biological target: T4, Rpl10-(His)6 (S. cerevisiae) (UniProt P41805); experiment: pull-down; (His)6-tagged Rpl10 variant and Sqt1 variant co-expressed in E. coli from pETDuet-1; Ni-NTA agarose purification from the soluble extract; 50 mM Tris-HCl (pH 7.5), 200 mM NaCl, 1.5 mM MgCl2, 5% glycerol, 0.1% NP-40, 4 °C; imidazole eluate on SDS-PAGE, Coomassie and western blot
T4 sequence: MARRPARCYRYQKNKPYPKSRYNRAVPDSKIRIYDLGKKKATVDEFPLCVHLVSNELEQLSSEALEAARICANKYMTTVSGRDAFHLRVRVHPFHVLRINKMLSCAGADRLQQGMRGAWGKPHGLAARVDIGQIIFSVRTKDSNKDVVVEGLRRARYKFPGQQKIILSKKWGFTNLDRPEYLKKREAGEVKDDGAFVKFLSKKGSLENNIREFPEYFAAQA

[5] = biological target: T5, Rpl10(1–20)-(His)6 (S. cerevisiae); experiment: as above
T5 sequence: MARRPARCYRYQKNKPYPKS

[6] = biological target: T6, ScSqt1.53C (co-expressed with Rpl10(1–20)-(His)6 for the co-structure) (S. cerevisiae) (UniProt P35184); experiment: crystal structure; complex co-expressed in E. coli, co-purified via Rpl10(1–20)-(His)6 by Ni-affinity and size-exclusion chromatography; sitting-drop vapor diffusion at 291 K; both purified
T6 sequence: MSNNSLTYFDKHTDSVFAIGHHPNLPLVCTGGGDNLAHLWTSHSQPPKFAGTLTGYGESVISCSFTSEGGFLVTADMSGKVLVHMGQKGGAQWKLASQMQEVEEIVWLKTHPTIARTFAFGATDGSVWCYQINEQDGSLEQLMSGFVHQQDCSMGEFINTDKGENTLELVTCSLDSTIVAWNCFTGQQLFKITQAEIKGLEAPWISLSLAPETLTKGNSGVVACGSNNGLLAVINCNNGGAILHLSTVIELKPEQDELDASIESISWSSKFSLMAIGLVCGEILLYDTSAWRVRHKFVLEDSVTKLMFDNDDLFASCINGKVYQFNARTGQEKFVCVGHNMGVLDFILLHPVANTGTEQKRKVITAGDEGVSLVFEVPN

[7] = biological target: T7, NTAP-Rrb1 (S. cerevisiae) (UniProt Q04225); experiment: affinity purification of a TAP-tagged bait from yeast cells (in vivo co-purification); Sqt1-TAP or NTAP-Rrb1 bait; yEGFP fusions or 2xHA-tagged ribosomal proteins as prey; Supplementary Fig. 3b,c, methods not shown
T7 sequence: T2 sequence

- binding [1]: binds
- binding [2]: binds
B1: Rpl3 amino acids 1–15 (yeast two-hybrid fusion) (domain or fragment, UniProt P14126 1-15)
chain: MSHRKYEAPRHGHLG

- binding [3]: binds
B2: first 64 amino acids of Rpl10 (yeast two-hybrid fusion) (domain or fragment, UniProt P41805 1-64)
chain: MARRPARCYRYQKNKPYPKSRYNRAVPDSKIRIYDLGKKKATVDEFPLCVHLVSNELEQLSSEA

- binding [4]: binds
- binding [5]: binds
B3: Sqt1-Flag (protein, UniProt P35184 1-431)
chain: T3 sequence

More lines, now with the values behind:

B4: Rpl10(1–20)-(His)6 (peptide)
chain: MARRPARCYRYQKNKPYPKS
- binding [6]: binds

B5: L3-N (amino acids 1–23) yEGFP fusion protein (peptide, UniProt P14126 1-23)
chain: MSHRKYEAPRHGHLGFLPRKRAA
- binding [7]: binds
